Data on 1 substance can be found in PMC5385344, “Large Diversity of Functional Nanobodies from a Camelid Immune Library Revealed by an Alternative Analysis of Next-Generation Sequencing Data” (Frontiers in Immunology, 2017).

Chains of the proteins cited; added tags and fusions are not shown. Residues count along the entry.
UniProt P26927, residues 19-711: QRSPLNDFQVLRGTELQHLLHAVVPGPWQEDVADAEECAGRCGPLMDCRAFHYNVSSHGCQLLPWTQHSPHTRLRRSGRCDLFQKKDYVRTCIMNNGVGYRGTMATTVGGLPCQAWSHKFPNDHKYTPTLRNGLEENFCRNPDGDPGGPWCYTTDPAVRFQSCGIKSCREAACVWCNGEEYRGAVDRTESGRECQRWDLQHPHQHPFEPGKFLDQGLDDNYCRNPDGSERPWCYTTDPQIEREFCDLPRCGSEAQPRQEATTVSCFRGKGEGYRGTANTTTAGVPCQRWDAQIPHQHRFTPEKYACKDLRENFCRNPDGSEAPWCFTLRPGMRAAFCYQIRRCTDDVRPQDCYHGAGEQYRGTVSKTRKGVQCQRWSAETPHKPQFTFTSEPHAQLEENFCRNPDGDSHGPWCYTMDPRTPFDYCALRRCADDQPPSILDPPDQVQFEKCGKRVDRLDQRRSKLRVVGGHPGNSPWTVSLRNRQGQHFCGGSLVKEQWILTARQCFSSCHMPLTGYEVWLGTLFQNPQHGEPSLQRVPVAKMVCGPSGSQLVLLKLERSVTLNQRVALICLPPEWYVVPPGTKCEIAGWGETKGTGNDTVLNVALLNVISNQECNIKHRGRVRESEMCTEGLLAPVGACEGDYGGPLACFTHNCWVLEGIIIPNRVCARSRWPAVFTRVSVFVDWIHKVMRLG

For the experiment, the target named is T1, Recombinant extracellular domain of human RON (rhRON) (human) (UniProt Q04912).
T1 sequence: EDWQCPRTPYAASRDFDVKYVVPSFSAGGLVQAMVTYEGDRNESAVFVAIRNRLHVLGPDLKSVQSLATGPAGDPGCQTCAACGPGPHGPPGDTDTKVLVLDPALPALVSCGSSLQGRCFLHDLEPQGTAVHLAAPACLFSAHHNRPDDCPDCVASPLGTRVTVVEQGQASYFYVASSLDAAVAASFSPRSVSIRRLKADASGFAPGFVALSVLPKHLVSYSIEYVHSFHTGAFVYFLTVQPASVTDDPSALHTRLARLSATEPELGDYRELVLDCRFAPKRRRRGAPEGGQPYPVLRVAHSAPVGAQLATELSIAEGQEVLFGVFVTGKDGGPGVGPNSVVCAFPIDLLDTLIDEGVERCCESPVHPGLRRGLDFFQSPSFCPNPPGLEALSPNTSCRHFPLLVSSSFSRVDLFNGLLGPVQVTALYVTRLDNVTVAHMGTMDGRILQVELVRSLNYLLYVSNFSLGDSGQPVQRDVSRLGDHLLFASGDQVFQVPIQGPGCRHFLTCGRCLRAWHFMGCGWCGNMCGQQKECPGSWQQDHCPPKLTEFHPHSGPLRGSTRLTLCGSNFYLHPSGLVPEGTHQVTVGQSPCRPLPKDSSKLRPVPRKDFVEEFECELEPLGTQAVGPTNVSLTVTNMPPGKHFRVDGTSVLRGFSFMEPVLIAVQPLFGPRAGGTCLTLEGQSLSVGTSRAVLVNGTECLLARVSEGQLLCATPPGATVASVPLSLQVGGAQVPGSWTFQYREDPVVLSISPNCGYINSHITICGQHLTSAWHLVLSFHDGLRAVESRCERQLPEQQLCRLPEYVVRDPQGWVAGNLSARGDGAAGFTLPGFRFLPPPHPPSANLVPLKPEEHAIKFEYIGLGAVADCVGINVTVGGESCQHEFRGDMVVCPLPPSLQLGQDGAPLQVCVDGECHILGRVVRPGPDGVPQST
Kind of experiment: ELISA; ligand competition: rhRON (1 µg/ml) immobilised directly; dilution series of purified nanobodies starting at 1 µM added together with 2 nM biotinylated MSP; MSP detected by extravidin peroxidase; both purified. (In general: An ELISA detects its analyte on a solid surface through an enzyme-linked reagent.)

No constants are given. Whether binding was seen depends on the method and setting. Some entries that bind do so weakly or less than the wild type.

For the substance “macrophage-stimulating protein (MSP) (from UniProt P26927 19-711) (ligand)”, the binding entry is given as “binds”.
